Assay [1] in a line: Nuclear factor erythroid 2-related factor 2/antioxidant responsive element (Nrf2/ARE) small molecule agonists: qHTS cell viability counter screen in human keratinocytes (AID 1919968; active means well fitted cell-killing curve with a large enough effect in the repeat runs; further: nearly all actives have a fitted effect of over 55% in size). The conditions noted are these: KeratinoSens HaCaT ARE cells viability, CellTiter-Fluor, 24 h; at 92.4 µM (top of the series). From the text:
U.S. Tox21 Program National Center for Advancing Translational Sciences [NCATS] Division of Preclinical Innovation [DPI] U.S. Environmental Protection Agency [EPA] National Institutes of Environmental Health Sciences [NIEHS] National Toxicology Program [NTP] U.S. Food and Drug Administration [FDA] Tox21 Assay Overview: Oxidative stress has been implicated in the pathogenesis of a variety of diseases ranging from cancer to neurodegeneration. The antioxidant response element (ARE) signaling pathway plays an important role in the amelioration of oxidative stress. The KeratinoSens (Givaudan, Switzerland) is an in vitro test method which quantifies luciferase induction as a measure of activation of Keap1-Nrf2-antioxidationt/electrophile response element (ARE) dependant pathway in HaCaT human keratinocytes stably transfected with a selectable plasmid. […] The activation of the report gene under culture conditions can be detected by ONE-Glo Luciferase Assay System (Promega, Madison, WI). […]
Tox21 Assay Protocol Summary: HaCaT derived cell line KeratinoSens were dispensed at 1,500 cells/5uL/well in 1536-well white wall/solid bottom plates using a Multidrop Combi (ThermoFisher Scientific, Waltham, MA) dispenser. […] After 1 h incubation at 37 C/5% CO2 the fluorescence intensity was measured using a ViewLux (PerkinElmer, Shelton, CT) plate reader.

Assay [2] can be described thus: Nuclear factor erythroid 2-related factor 2/antioxidant responsive element (Nrf2/ARE) small molecule agonists: luciferase reporter gene qHTS assay in human keratinocytes (AID 1919969). Further: nearly all actives have a fitted effect of over 35% in size. The conditions noted are these: KeratinoSens HaCaT ARE-luciferase, luminescence, 24 h; at 92.4 µM (top of the series).

This list holds what a sample rich in hits left over. Records with an inconclusive call do not appear. Active and inactive are the calls of the source. Unless noted, the call rests on the fitted dose curve.
On the % scale 0 is the no-effect control and ±100 the full control effect.

As for `CN1CC[C@]23c4c5ccc(O)c4O[C@H]2[C@@H](O)C=C[C@H]3[C@H]1C5`, the activity change, negative = cytotoxicity in assay [1] was inactive: -0.224%. The activity, positive = activation in assay [2] is inactive: 2.58%.

The values above are taken from PubChem BioAssay (Tox21).
